We go through 3 molecules from US20250333513A1 (Immunocore, published 2025).

By UniProt entry, the sequences of proteins in these tests, tags left out. Where a name states a change or a piece, a line headed by the entry shows the natural chain unless it says otherwise. Residues count along the entry.
UniProt P06126, residues 17-300: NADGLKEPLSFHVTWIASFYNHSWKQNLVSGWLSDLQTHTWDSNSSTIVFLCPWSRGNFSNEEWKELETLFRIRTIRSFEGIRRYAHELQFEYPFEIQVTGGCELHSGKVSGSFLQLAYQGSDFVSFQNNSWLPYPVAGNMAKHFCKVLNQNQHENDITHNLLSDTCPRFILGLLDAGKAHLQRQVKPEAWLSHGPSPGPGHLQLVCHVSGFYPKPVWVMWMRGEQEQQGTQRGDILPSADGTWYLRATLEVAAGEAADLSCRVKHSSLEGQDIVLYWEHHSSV
UniProt Q15116: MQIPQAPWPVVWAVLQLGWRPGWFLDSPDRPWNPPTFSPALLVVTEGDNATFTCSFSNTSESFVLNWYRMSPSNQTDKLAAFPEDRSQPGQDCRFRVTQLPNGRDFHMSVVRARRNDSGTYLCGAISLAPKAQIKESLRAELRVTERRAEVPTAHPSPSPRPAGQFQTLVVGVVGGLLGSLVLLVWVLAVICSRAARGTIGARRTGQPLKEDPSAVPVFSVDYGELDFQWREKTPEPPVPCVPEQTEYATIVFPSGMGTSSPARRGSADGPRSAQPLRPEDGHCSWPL

These are yes or no findings as the source states them, for the method shown. Some binding calls cover weakened binding; strength is not graded here.

Test [1] addresses recombinant human CD1a protein (human) (UniProt P06126). As to the kind of experiment: crystal structure.
In test [2] the target is T1, extracellular region of human PD-1 (human, UniProt Q15116 25-170).
T1 construct: also called extracellular domain of human PD-1
As to the kind of experiment: crystallography.

B1: Ab002 WT VHH CD1a antibody (Ab002 Llama WT) (VHH)
VHH: EVQLVESGGGLVQAGGSLRLSCAPSGRTFNPGDLMGWFRQAPGKEREFVAAIKWGPTYYADSVKGRFTISRDYVRNTVYVQMNDLKAEDTAVYYCAGKGSGTFSSNYRDFEYWGQGTQVTVSS
As for B1, in test [1], the binding entry was “binds”.

B2: Ab007 WT VHH CD1a antibody (Ab007 Llama WT) (VHH)
VHH: EVQLVESGGRLAQAGGSLRLSCAASGRAFRPHNVMAWFRQAPEKEREFVAAARWSGIYYAESVKGRFSVSRDYDKNAVFLQMNGLKPEDTAVYYCAVSTAQDMTLALMSDYDYWGQGIQVTVSS
On to B2, for which the binding result in test [1] was “binds”.

B3: PD-1 agonist VHH (camelid PD-1 agonist VHH) (VHH)
VHH: EVQLVESGGALVQPGGSLRLSCAASGFTFSSYAMTWVRQAPGKGPEWVSAIASDGASTSYLDSVKGRFTVSRDNAKNTLYLQMNSLKPEDTAVYYCARGGYLTYDRYGQGTQVTVSS
notes: also called PD-1 VHH domain; PD-1 VHH antibody
Regarding B3, the binding result in test [2] is recorded as “binds”.
